In the supplement of paper PMC7877785:
± gives the uncertainty stated by the source. The uncertainty is large for many entries.

Experiment: self-splicing fitness, log relative to wild type (ln ratio); higher = more splicing; Tetrahymena group I intron in knt gene, E. coli kanamycin selection, DiMSum; sequences stand for … in CUCUCU…GGAGGGAAAAGUUAUCAGGCAUGCACCUGGUAGCUAGUCUUUAAACCAAUAGAUUGCAUCGGUUUAAAAGGCAAGACCGUCAAAUUGCGGGAAAGGGGUCAACAGCCGUUCAGUACCAAGUCUCAGGGGAAACUUUGAGAUGGCCUUGCAAAGGGUAUGGUAAUAAGCUGACGGACAUGGUCCUAACCACGCAGCCAAGUCCUAAGUCAACAGAUCUUCUGUUGAUAUGGAUGCAGUUCACAGACUAAAUGUCGGUCGGGGAAGAUGUAUUCUUCUCAUAAGAUAUAGUCGGACCUCUCCUUAAUGGGAGCUAGCGGAUGAAGUGAUGCAACACUGGAGCCGCUGGGAACUAAUUUGUAUGCGAAAGUAUAUUGAUUAGUUUUGGAGUACUCGUGGUCG
Method in brief: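 Library with all eight P1ex-region intron nucleotides randomised, intron inside the knt kanamycin-resistance gene on pET-22b(+), in E. coli BL21(DE3). Cells grew overnight at 37°C or 30°C on LB agar with or without 25 μg/mL kanamycin (plus 100 μg/mL carbenicillin, 50 μM IPTG, 0.2% rhamnose), in six replicate transformations. Pooled colonies were amplicon-sequenced on Illumina HiSeq 2500. DiMSum fitness is the error-weighted combination of wild-type-normalised replicate fold changes, kanamycin versus none.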

Sequence	self-splicing fitness (ln) (30 °C)	self-splicing fitness (ln) (37 °C)
AUGUAGCAAUAUUACGGAAC	-4.98 ± 0.73	-1.16 ± 0.41
CCAGAGCAAUAUUACGUCCC	-4.51 ± 0.72	-2.22 ± 0.55
UACGAGCAAUAUUACGAAGG	-4.01 ± 0.6	-0.765 ± 0.3
GGGCAGCAAUAUUACGAUGG	–	-3.47 ± 0.72
UUGGAGCAAUAUUACGGGUU	-4.04 ± 0.6	-2.64 ± 1.1
GAUGAGCAAUAUUACGUUAA	–	-2.78 ± 0.61
UCGGAGCAAUAUUACGGUUC	-3.94 ± 0.51	–
CGUUAGCAAUAUUACGCAUC	-2.23 ± 0.52	–
AAUCAGCAAUAUUACGUUCU	0.0868 ± 0.061	0.0857 ± 0.085
UUUAAGCAAUAUUACGCUAG	-1.54 ± 0.15	-0.671 ± 0.2
CUGUAGCAAUAUUACGGACC	–	-2.19 ± 0.63
CGUGAGCAAUAUUACGCGUC	–	-3.01 ± 1
GGACAGCAAUAUUACGAGUU	-3.64 ± 0.19	-1.24 ± 0.11
UAAGAGCAAUAUUACGGAAG	–	-2.85 ± 0.61
ACCUAGCAAUAUUACGCGCG	-0.971 ± 0.13	0.377 ± 0.13
AAGUAGCAAUAUUACGGAAC	-1.4 ± 0.49	-1.46 ± 0.25
GGAUAGCAAUAUUACGCUUC	–	-2.43 ± 0.63
AUACAGCAAUAUUACGGGUA	-1.24 ± 0.078	-0.645 ± 0.078
AAAAAGCAAUAUUACGCAUA	-1.5 ± 0.11	-0.715 ± 0.1
CGCGAGCAAUAUUACGAGUC	-2.7 ± 0.38	-1.57 ± 0.29
CGUGAGCAAUAUUACGCUAC	-1.52 ± 1.2	–
GCAGAGCAAUAUUACGGACG	-4.09 ± 0.6	–
AGGAAGCAAUAUUACGGGUU	-3.14 ± 0.15	-1.96 ± 0.15
CAAUAGCAAUAUUACGGACC	-3.88 ± 1.1	–

Whole records from above.
UACGAGCAAUAUUACGAAGG is entered as self-splicing fitness (ln) (30 °C) = -4.01 ± 0.6; self-splicing fitness (ln) (37 °C) = -0.765 ± 0.3
CGUGAGCAAUAUUACGCGUC is entered as self-splicing fitness (ln) (37 °C) = -3.01 ± 1
AGGAAGCAAUAUUACGGGUU is entered as self-splicing fitness (ln) (30 °C) = -3.14 ± 0.15; self-splicing fitness (ln) (37 °C) = -1.96 ± 0.15

The list goes on:

Sequence	self-splicing fitness (ln) (30 °C)	self-splicing fitness (ln) (37 °C)
CUUUAGCAAUAUUACGGAAC	-2.49 ± 0.55	–
CUUGAGCAAUAUUACGACCU	-3.66 ± 1	-2.69 ± 0.62
CUCUAGCAAUAUUACGUCCA	-3.88 ± 1.1	–
CGAGAGCAAUAUUACGCCAG	-2.21 ± 0.65	–
UGCUAGCAAUAUUACGAACC	0.635 ± 0.75	–
UUAUAGCAAUAUUACGAAUA	-0.72 ± 0.67	-1.92 ± 0.66
GGAGAGCAAUAUUACGAAGC	–	-2.36 ± 0.55
CCUAAGCAAUAUUACGAAUA	–	-3.27 ± 0.52
UCCUAGCAAUAUUACGAAAG	–	-3.53 ± 0.6
GAGGAGCAAUAUUACGUGGC	–	-3.4 ± 1
GGAGAGCAAUAUUACGAGUC	–	-2.14 ± 0.55
CGAGAGCAAUAUUACGCCUG	-3.12 ± 0.25	-1.73 ± 0.28
CGAGAGCAAUAUUACGCUAG	-2.84 ± 0.57	–
CACAAGCAAUAUUACGUUCG	-0.461 ± 0.048	0.012 ± 0.06
GUUUAGCAAUAUUACGUUCC	–	-1.09 ± 0.5
GAACAGCAAUAUUACGGUCA	-0.702 ± 0.062	-1.05 ± 0.066
GUUUAGCAAUAUUACGGAGG	–	-3.08 ± 1
GUCGAGCAAUAUUACGCUCG	–	-2.41 ± 0.63
GUGGAGCAAUAUUACGGUUG	–	-3.96 ± 0.72
AUGAAGCAAUAUUACGGAUU	-1.08 ± 0.078	-0.689 ± 0.1
GCGUAGCAAUAUUACGCAUA	-3.49 ± 0.2	-2.17 ± 0.21
AUUUAGCAAUAUUACGCGGC	-3.19 ± 0.82	–
AGAGAGCAAUAUUACGAAGC	–	0.459 ± 1.2
